Laboratory results taken from the supplement of paper PMC6078165.
Values are relative to the signal before dosing, not to a vehicle control; the signal also falls without drug.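 Fibroblast labels name human fibroblasts: mostly primary ones from tissues such as uterus (C12385, HUF), lung (H6013), bone (Hs27A), adrenal (HADF) and skin (WS1), plus mammary HMF and breast cancer-associated Hs343T. The cancer cells are basal-like or mesenchymal-like triple-negative breast cancer lines. The paper calls a changed response a hit when it shifts by more than 3x the replicate standard deviation. The tissue of the other fibroblasts is not given here.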

Tested on: MDAMB436
Assay: relative JC-1 red fluorescence (viability) vs pre-drug, coculture with fibroblast (fraction); higher = more viable cancer cells
Protocol: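 JC-1 labelled TNBC cells cocultured 1:1 (1,500 cells each) with CellTrace Violet stained primary or stromal fibroblasts in 384-well plates in FluoroBrite medium, treated with one of 42 anticancer drugs at 0.1, 1, 10 or 100 uM. JC-1 red fluorescence (mitochondrial integrity in cancer cells only) was read by plate reader every 8 h for 72 h. Values are normalised to each well's pre-drug value. The stock of one drug was tenfold lower, so its dose labels may be too high.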

CN(C)CCOc1ccc(/C(=C(/CCCl)c2ccccc2)c2ccccc2)cc1 [Toremifene]
relative JC-1 red fluorescence
Details | 8 h | 16 h | 24 h | 32 h | 40 h | 48 h | 56 h | 64 h | 72 h
10 µM, coculture fibroblast: C12385 | 0.8389 | 0.802 | 0.788 | 0.73 | 0.696 | 0.668 | 0.638 | 0.609 | 0.587
10 µM, coculture fibroblast: H6013 | 0.879 | 0.86 | 0.844 | 0.857 | 0.837 | 0.846 | 0.806 | 0.787 | 0.752
10 µM, coculture fibroblast: H6019 | 0.806 | 0.873 | 0.964 | 0.862 | 0.831 | 0.783 | 0.9888 | 0.9647 | 0.9356
10 µM, coculture fibroblast: H6076 | 0.805 | 0.902 | 0.829 | 0.926 | 0.841 | 0.921 | 0.884 | 0.877 | 0.845
10 µM, coculture fibroblast: H6231 | 0.881 | 0.798 | 0.775 | 0.693 | 0.658 | 0.635 | 0.585 | 0.54 | 0.521
10 µM, coculture fibroblast: HADF | 0.833 | 0.816 | 0.824 | 0.842 | 0.847 | 0.861 | 0.821 | 0.799 | 0.742
10 µM, coculture fibroblast: HCFa | 0.877 | 0.803 | 0.831 | 0.896 | 0.9247 | 0.871 | 0.816 | 0.773 | 0.849
10 µM, coculture fibroblast: HCPF | 0.845 | 0.781 | 0.8223 | 0.772 | 0.734 | 0.694 | 0.652 | 0.604 | 0.581
10 µM, coculture fibroblast: HHSteC | 0.855 | 0.74 | 0.828 | 0.752 | 0.838 | 0.815 | 0.752 | 0.712 | 0.652
10 µM, coculture fibroblast: HMF | 0.787 | 0.78 | 0.808 | 0.778 | 0.762 | 0.725 | 0.684 | 0.638 | 0.605
10 µM, coculture fibroblast: HPFa | 0.8509 | 0.768 | 0.745 | 0.712 | 0.689 | 0.668 | 0.617 | 0.595 | 0.544
10 µM, coculture fibroblast: HUF | 0.856 | 0.827 | 0.829 | 0.79 | 0.752 | 0.725 | 0.689 | 0.661 | 0.6422
10 µM, coculture fibroblast: Hs5 | 0.8097 | 0.7887 | 0.794 | 0.743 | 0.73 | 0.7 | 0.714 | 0.68 | 0.686
10 µM, coculture fibroblast: Hs27A | 0.874 | 0.845 | 0.873 | 0.773 | 0.776 | 0.861 | 0.7378 | 0.778 | 0.725
10 µM, coculture fibroblast: Hs343T | 0.855 | 0.869 | 0.873 | 0.842 | 0.811 | 0.753 | 0.707 | 0.681 | 0.663
10 µM, coculture fibroblast: WS1 | 0.822 | 0.84 | 0.936 | 0.891 | 0.871 | 0.889 | 0.856 | 0.853 | 0.848
100 µM, coculture fibroblast: C12385 | 0.635 | 0.513 | 0.48 | 0.4003 | 0.3393 | 0.3 | 0.266 | 0.233 | 0.2
100 µM, coculture fibroblast: H6013 | 0.71 | 0.6 | 0.586 | 0.555 | 0.511 | 0.507 | 0.427 | 0.385 | 0.317
100 µM, coculture fibroblast: H6019 | 0.686 | 0.57 | 0.57 | 0.506 | 0.47 | 0.436 | 0.398 | 0.354 | 0.32
100 µM, coculture fibroblast: H6076 | 0.595 | 0.482 | 0.442 | 0.364 | 0.305 | 0.233 | 0.187 | 0.139 | 0.0998
100 µM, coculture fibroblast: H6231 | 0.7 | 0.523 | 0.461 | 0.339 | 0.278 | 0.21905 | 0.1824 | 0.135 | 0.094
100 µM, coculture fibroblast: HADF | 0.731 | 0.585 | 0.542 | 0.492 | 0.437 | 0.439 | 0.345 | 0.308 | 0.233
100 µM, coculture fibroblast: HCFa | 0.82725 | 0.718 | 0.705 | 0.649 | 0.603 | 0.606 | 0.497 | 0.456 | 0.358
100 µM, coculture fibroblast: HCPF | 0.599 | 0.478 | 0.3914 | 0.305 | 0.255 | 0.192 | 0.134 | 0.0924 | 0.0509
100 µM, coculture fibroblast: HHSteC | 0.808 | 0.748 | 0.717 | 0.649 | 0.627 | 0.621 | 0.519 | 0.474 | 0.396
100 µM, coculture fibroblast: HMF | 0.596 | 0.449 | 0.384 | 0.309 | 0.262 | 0.2013 | 0.1529 | 0.0988 | 0.0625
100 µM, coculture fibroblast: HPFa | 0.923 | 0.81 | 0.769 | 0.708 | 0.677 | 0.672 | 0.568 | 0.519 | 0.441
100 µM, coculture fibroblast: HUF | 0.7 | 0.571 | 0.571 | 0.509 | 0.46 | 0.426 | 0.389 | 0.362 | 0.334
100 µM, coculture fibroblast: Hs5 | 0.675 | 0.558 | 0.534 | 0.439 | 0.375 | 0.279 | 0.241 | 0.178 | 0.132
100 µM, coculture fibroblast: Hs27A | 0.622 | 0.531 | 0.48 | 0.428 | 0.392 | 0.424 | 0.314 | 0.29 | 0.212
100 µM, coculture fibroblast: Hs343T | 0.615 | 0.496 | 0.477 | 0.377 | 0.333 | 0.235 | 0.184 | 0.1346 | 0.102
100 µM, coculture fibroblast: WS1 | 0.602 | 0.44 | 0.412 | 0.336 | 0.294 | 0.258 | 0.228 | 0.192 | 0.169
